Results taken from publication PMC6906297.
No constants are given. Whether binding was seen depends on the method and setting. Binding seen in cells or lysates may run through a third protein. Sequences can lack the tags named with a protein.

Target: T1, RNF125, tagged, transfected (UniProt Q96EQ8)
T1 sequence: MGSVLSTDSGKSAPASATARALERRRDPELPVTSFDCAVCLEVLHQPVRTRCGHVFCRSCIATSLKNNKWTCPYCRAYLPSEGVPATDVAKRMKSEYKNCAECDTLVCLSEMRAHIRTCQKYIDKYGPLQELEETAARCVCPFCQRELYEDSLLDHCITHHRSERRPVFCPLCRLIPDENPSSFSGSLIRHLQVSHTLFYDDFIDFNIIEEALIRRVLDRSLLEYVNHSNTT
Experiment: co-IP; HEK293T cells (2 x 10^6) transfected with the indicated plasmids for 24 h; lysate with monoclonal antibody or control mouse IgG and protein G agarose, 4 °C, 2 h; washed with lysis buffer containing 0.5 M NaCl; western blot

“G3BP1 acidic domain (human) (domain or fragment)” was tested, and the binding was “no binding”.
